Assay results taken from patent publication US20180320217A1, “METHODS FOR SAMPLING AND MEASURING ORAL LAVAGE PROTEINS” (The Procter & Gamble Company, priority 2017, published 2018).

Tested on: proteins in oral lavage
Experiment: Abundance of proteins in human oral lavage (SomaLogic), TABLE 1
Format: in vivo
Settings: for Means (Original Scale) High bleeder BL / Means (Original Scale) High bleeder W4 / Means (Original Scale) Low bleeder BL: abundance in oral lavage; for Means (Original Scale) High bleeder BL: high bleeders (gingivitis); for Means (Original Scale) High bleeder BL / Means (Original Scale) Low bleeder BL: baseline; for Means (Original Scale) High bleeder W4 / Fold Change High bleeder W4 vs High bleeder BL: high bleeders; for Means (Original Scale) High bleeder W4: week 4 of investigative products; for Means (Original Scale) Low bleeder BL: low bleeders (healthy); for Fold Change High bleeder BL vs Low bleeder BL / Fold Change High bleeder W4 vs High bleeder BL: oral lavage; for Fold Change High bleeder BL vs Low bleeder BL: high bleeders vs low bleeders at baseline; for Fold Change High bleeder W4 vs High bleeder BL: week 4 of investigative products vs baseline

| Molecule | Means (Original Scale) High bleeder BL | Means (Original Scale) High bleeder W4 | Means (Original Scale) Low bleeder BL | Fold Change High bleeder BL vs Low bleeder BL | Fold Change High bleeder W4 vs High bleeder BL |
| --- | --- | --- | --- | --- | --- |
| Granulocyte colony-stimulating factor receptor (protein, UniProt Q99062 25-836, looked up) Granulocyte …: ECGHISVSAPIVHLGDPITASCIIKQNCSHLDPEPQILWRLGAELQPGGRQQRLSDGTQESIITLPHLNHTQAFLSCCLNWGNSLQILDQVELRAGYPPAIPHNLSCLMNLTTSSLICQWEPGPETHLPTSFTLKSFKSRGNCQTQGDSILDCVPKDGQSHCCIPRKHLLLYQNMGIWVQAENALGTSMSPQLCLDPMDVVKLEPPMLRTMDPSPEAAPPQAGCLQLCWEPWQPGLHINQKCELRHKPQRGEASWALVGPLPLEALQYELCGLLPATAYTLQIRCIRWPLPGHWSDWSPSLELRTTERAPTVRLDTWWRQRQLDPRTVQLFWKPVPLEEDSGRIQGYVVSWRPSGQAGAILPLCNTTELSCTFHLPSEAQEVALVAYNSAGTSRPTPVVFSESRGPALTRLHAMARDPHSLWVGWEPPNPWPQGYVIEWGLGPPSASNSNKTWRMEQNGRATGFLLKENIRPFQLYEIIVTPLYQDTMGPSQHVYAYSQEMAPSHAPELHLKHIGKTWAQLEWVPEPPELGKSPLTHYTIFWTNAQNQSFSAILNASSRGFVLHGLEPASLYHIHLMAASQAGATNSTVLTLMTLTPEGSELHIILGLFGLLLLLTCLCGTAWLCCSPNRKNPLWPSVPDPAHSSLGSWVPTIMEEDAFQLPGLGTPPITKLTVLEEDEKKPVPWESHNSSETCGLPTLVQTYVLQGDPRAVSTQPQSQSGTSDQVLYGQLLGSPTSPGPGHYLRCDSTQPLLAGLTPSPKSYENLWFQASPLGTLVTPAPSQEDDCVFGPLLNFPLLQGIRVHGMEALGSF | 327 | 219 | 166 | 1.90 | 0.70 |
| Granulocyte colony-stimulating factor (protein, UniProt P09919 31-207, looked up) Granulocyte …: TPLGPASSLPQSFLLKCLEQVRKIQGDGAALQEKLVSECATYKLCHPEELVLLGHSLGIPWAPLSSCPSQALQLAGCLSQLHSGLFLYQGLLQALEGISPELGPTLDTLQLDVADFATTIWQQMEELGMAPALQPTQGAMPAFASAFQRRAGGVLVASHLQSFLEVSYRVLRHLAQP | 504 | 268 | 121 | 3.52 | 0.61 |
| HERV-H LTR-associating protein 2 (protein, UniProt Q9UM44 23-414, looked up) HERV-H LTR-associating …: IFPLAFFIYVPMNEQIVIGRLDEDIILPSSFERGSEVVIHWKYQDSYKVHSYYKGSDHLESQDPRYANRTSLFYNEIQNGNASLFFRRVSLLDEGIYTCYVGTAIQVITNKVVLKVGVFLTPVMKYEKRNTNSFLICSVLSVYPRPIITWKMDNTPISENNMEETGSLDSFSINSPLNITGSNSSYECTIENSLLKQTWTGRWTMKDGLHKMQSEHVSLSCQPVNDYFSPNQDFKVTWSRMKSGTFSVLAYYLSSSQNTIINESRFSWNKELINQSDFSMNLMDLNLSDSGEYLCNISSDEYTLLTIHTVHVEPSQETASHNKGLWILVPSAILAAFLLIWSVKCCRAQLEARRSRHPADGAQQERCCVPPGERCPSAPDNGEENVPLSGKV | 1034 | 623 | 226 | 4.01 | 0.64 |
| Gamma-enolase (protein, UniProt P09104 2-434, looked up) Gamma-enolase: SIEKIWAREILDSRGNPTVEVDLYTAKGLFRAAVPSGASTGIYEALELRDGDKQRYLGKGVLKAVDHINSTIAPALISSGLSVVEQEKLDNLMLELDGTENKSKFGANAILGVSLAVCKAGAAERELPLYRHIAQLAGNSDLILPVPAFNVINGGSHAGNKLAMQEFMILPVGAESFRDAMRLGAEVYHTLKGVIKDKYGKDATNVGDEGGFAPNILENSEALELVKEAIDKAGYTEKIVIGMDVAASEFYRDGKYDLDFKSPTDPSRYITGDQLGALYQDFVRDYPVVSIEDPFDQDDWAAWSKFTANVGIQIVGDDLTVTNPKRIERAVEEKACNCLLLKVNQIGSVTEAIQACKLAQENGWGVMVSHRSGETEDTFIADLVVGLCTGQIKTGAPCRSERLAKYNQLMRIEEELGDEARFAGHNFRNPSVL | 420 | 244 | 200 | 2.36 | 0.62 |
| Growth arrest-specific protein 1 (protein, UniProt P54826 40-318, looked up) Growth arrest-specific …: LAHGRRLICWQALLQCQGEPECSYAYNQYAEACAPVLAQHGGGDAPGAAAAAFPASAASFSSRWRCPSHCISALIQLNHTRRGPALEDCDCAQDENCKSTKRAIEPCLPRTSGGGAGGPGAGGVMGCTEARRRCDRDSRCNLALSRYLTYCGKVFNGLRCTDECRTVIEDMLAMPKAALLNDCVCDGLERPICESVKENMARLCFGAELGNGPGSSGSDGGLDDYYDEDYDDEQRTGGAGGEQPLDDDDGVPHPPRPGSGAAASGGRGDLPYGPGRRSS | 2909 | 1272 | 433 | 5.48 | 0.49 |
| Fructose-bisphosphate aldolase A (protein, UniProt P04075 2-364, looked up) Fructose-bisphosphate …: PYQYPALTPEQKKELSDIAHRIVAPGKGILAADESTGSIAKRLQSIGTENTEENRRFYRQLLLTADDRVNPCIGGVILFHETLYQKADDGRPFPQVIKSKGGVVGIKVDKGVVPLAGTNGETTTQGLDGLSERCAQYKKDGADFAKWRCVLKIGEHTPSALAIMENANVLARYASICQQNGIVPIVEPEILPDGDHDLKRCQYVTEKVLAAVYKALSDHHIYLEGTLLKPNMVTPGHACTQKFSHEEIAMATVTALRRTVPPAVTGITFLSGGQSEEEASINLNAINKCPLLKPWALTFSYGRALQASALKAWGGKKENLKAAQEEYVKRALANSLACQGKYTPSGQAGAAASESLFVSNHAY | 255824 | 179719 | 33774 | 18.59 | 0.68 |
| Hepatocyte growth factor-like protein (protein, UniProt P26927 19-711, looked up) Hepatocyte growth factor-like …: QRSPLNDFQVLRGTELQHLLHAVVPGPWQEDVADAEECAGRCGPLMDCRAFHYNVSSHGCQLLPWTQHSPHTRLRRSGRCDLFQKKDYVRTCIMNNGVGYRGTMATTVGGLPCQAWSHKFPNDHKYTPTLRNGLEENFCRNPDGDPGGPWCYTTDPAVRFQSCGIKSCREAACVWCNGEEYRGAVDRTESGRECQRWDLQHPHQHPFEPGKFLDQGLDDNYCRNPDGSERPWCYTTDPQIEREFCDLPRCGSEAQPRQEATTVSCFRGKGEGYRGTANTTTAGVPCQRWDAQIPHQHRFTPEKYACKDLRENFCRNPDGSEAPWCFTLRPGMRAAFCYQIRRCTDDVRPQDCYHGAGEQYRGTVSKTRKGVQCQRWSAETPHKPQFTFTSEPHAQLEENFCRNPDGDSHGPWCYTMDPRTPFDYCALRRCADDQPPSILDPPDQVQFEKCGKRVDRLDQRRSKLRVVGGHPGNSPWTVSLRNRQGQHFCGGSLVKEQWILTARQCFSSCHMPLTGYEVWLGTLFQNPQHGEPSLQRVPVAKMVCGPSGSQLVLLKLERSVTLNQRVALICLPPEWYVVPPGTKCEIAGWGETKGTGNDTVLNVALLNVISNQECNIKHRGRVRESEMCTEGLLAPVGACEGDYGGPLACFTHNCWVLEGIIIPNRVCARSRWPAVFTRVSVFVDWIHKVMRLG | 2399 | 580 | 131 | 9.38 | 0.61 |
| HemK methyltransferase family member 2 (protein, UniProt Q9Y5N5 1-214, looked up) Methyltransferase HEMK2: MAGENFATPFHGHVGRGAFSDVYEPAEDTFLLLDALEAAAAELAGVEICLEVGSGSGVVSAFLASMIGPQALYMCTDINPEAAACTLETARCNKVHIQPVITDLVKGLLPRLTEKVDLLVFNPPYVVTPPQEVGSHGIEAAWAGGRNGREVMDRFFPLVPDLLSPRGLFYLVTIKENNPEEILKIMKTKGLQGTTALSRQAGQETLSVLKFTKS | 2638 | 1424 | 689 | 3.51 | 0.62 |
| Ephrin-B2 (protein, UniProt P52799 28-333, looked up) Ephrin-B2: IVLEPIYWNSSNSKFLPGQGLVLYPQIGDKLDIICPKVDSKTVGQYEYYKVYMVDKDQADRCTIKKENTPLLNCAKPDQDIKFTIKFQEFSPNLWGLEFQKNKDYYIISTSNGSLEGLDNQEGGVCQTRAMKILMKVGQDASSAGSTRNKDPTRRPELEAGTNGRSSTTSPFVKPNPGSSTDGNSAGHSGNNILGSEVALFAGIASGCIIFIVIIITLVVLLLKYRRRHRKHSPQHTTTLSLSTLATPKRSGNNNGSEPSDIIIPLRTADSVFCPHYEKVSGDYGHPVYIVQEMPPQSPANIYYKV | 2152 | 1295 | 1236 | 1.91 | 0.59 |
| Formimidoyltransferase-cyclodeaminase (protein, UniProt O95954 1-541, looked up) Formimidoyltransferase-cyclode …: MSQLVECVPNFSEGKNQEVIDAISGAITQTPGCVLLDVDAGPSTNRTVYTFVGPPECVVEGALNAARVASRLIDMSRHQGEHPRMGALDVCPFIPVRGVSVDECVLCAQAFGQRLAEELDVPVYLYGEAARMDSRRTLPAIRAGEYEALPKKLQQADWAPDFGPSSFVPSWGATATGARKFLIAFNINLLGTKEQAHRIALNLREQGRGKDQPGRLKKVQGIGWYLDEKNLAQVSTNLLDFEVTALHTVYEETCREAQELSLPVVGSQLVGLVPLKALLDAAAFYCEKENLFILEEEQRIRLVVSRLGLDSLCPFSPKERIIEYLVPERGPERGLGSKSLRAFVGEVGARSAAPGGGSVAAAAAAMGAALGSMVGLMTYGRRQFQSLDTTMRRLIPPFREASAKLTTLVDADAEAFTAYLEAMRLPKNTPEEKDRRTAALQEGLRRAVSVPLTLAETVASLWPALQELARCGNLACRSDLQVAAKALEMGVFGAYFNVLINLRDITDEAFKDQIHHRVSSLLQEAKTQAALVLDCLETRQE | 202 | 110 | 89 | 2.01 | 0.59 |
